# Measurements: the supplement of paper PMC12067093, “Discovery and optimisation of a covalent ligand for TRIM25 and its application to targeted protein ubiquitination” (Chemical Science, 2025)
# The chains behind the UniProt entries cited, without tags or fusion partners. Where a name states a change or a piece, a line headed by the entry shows the natural chain unless it says otherwise.
# UniProt Q9BYW2: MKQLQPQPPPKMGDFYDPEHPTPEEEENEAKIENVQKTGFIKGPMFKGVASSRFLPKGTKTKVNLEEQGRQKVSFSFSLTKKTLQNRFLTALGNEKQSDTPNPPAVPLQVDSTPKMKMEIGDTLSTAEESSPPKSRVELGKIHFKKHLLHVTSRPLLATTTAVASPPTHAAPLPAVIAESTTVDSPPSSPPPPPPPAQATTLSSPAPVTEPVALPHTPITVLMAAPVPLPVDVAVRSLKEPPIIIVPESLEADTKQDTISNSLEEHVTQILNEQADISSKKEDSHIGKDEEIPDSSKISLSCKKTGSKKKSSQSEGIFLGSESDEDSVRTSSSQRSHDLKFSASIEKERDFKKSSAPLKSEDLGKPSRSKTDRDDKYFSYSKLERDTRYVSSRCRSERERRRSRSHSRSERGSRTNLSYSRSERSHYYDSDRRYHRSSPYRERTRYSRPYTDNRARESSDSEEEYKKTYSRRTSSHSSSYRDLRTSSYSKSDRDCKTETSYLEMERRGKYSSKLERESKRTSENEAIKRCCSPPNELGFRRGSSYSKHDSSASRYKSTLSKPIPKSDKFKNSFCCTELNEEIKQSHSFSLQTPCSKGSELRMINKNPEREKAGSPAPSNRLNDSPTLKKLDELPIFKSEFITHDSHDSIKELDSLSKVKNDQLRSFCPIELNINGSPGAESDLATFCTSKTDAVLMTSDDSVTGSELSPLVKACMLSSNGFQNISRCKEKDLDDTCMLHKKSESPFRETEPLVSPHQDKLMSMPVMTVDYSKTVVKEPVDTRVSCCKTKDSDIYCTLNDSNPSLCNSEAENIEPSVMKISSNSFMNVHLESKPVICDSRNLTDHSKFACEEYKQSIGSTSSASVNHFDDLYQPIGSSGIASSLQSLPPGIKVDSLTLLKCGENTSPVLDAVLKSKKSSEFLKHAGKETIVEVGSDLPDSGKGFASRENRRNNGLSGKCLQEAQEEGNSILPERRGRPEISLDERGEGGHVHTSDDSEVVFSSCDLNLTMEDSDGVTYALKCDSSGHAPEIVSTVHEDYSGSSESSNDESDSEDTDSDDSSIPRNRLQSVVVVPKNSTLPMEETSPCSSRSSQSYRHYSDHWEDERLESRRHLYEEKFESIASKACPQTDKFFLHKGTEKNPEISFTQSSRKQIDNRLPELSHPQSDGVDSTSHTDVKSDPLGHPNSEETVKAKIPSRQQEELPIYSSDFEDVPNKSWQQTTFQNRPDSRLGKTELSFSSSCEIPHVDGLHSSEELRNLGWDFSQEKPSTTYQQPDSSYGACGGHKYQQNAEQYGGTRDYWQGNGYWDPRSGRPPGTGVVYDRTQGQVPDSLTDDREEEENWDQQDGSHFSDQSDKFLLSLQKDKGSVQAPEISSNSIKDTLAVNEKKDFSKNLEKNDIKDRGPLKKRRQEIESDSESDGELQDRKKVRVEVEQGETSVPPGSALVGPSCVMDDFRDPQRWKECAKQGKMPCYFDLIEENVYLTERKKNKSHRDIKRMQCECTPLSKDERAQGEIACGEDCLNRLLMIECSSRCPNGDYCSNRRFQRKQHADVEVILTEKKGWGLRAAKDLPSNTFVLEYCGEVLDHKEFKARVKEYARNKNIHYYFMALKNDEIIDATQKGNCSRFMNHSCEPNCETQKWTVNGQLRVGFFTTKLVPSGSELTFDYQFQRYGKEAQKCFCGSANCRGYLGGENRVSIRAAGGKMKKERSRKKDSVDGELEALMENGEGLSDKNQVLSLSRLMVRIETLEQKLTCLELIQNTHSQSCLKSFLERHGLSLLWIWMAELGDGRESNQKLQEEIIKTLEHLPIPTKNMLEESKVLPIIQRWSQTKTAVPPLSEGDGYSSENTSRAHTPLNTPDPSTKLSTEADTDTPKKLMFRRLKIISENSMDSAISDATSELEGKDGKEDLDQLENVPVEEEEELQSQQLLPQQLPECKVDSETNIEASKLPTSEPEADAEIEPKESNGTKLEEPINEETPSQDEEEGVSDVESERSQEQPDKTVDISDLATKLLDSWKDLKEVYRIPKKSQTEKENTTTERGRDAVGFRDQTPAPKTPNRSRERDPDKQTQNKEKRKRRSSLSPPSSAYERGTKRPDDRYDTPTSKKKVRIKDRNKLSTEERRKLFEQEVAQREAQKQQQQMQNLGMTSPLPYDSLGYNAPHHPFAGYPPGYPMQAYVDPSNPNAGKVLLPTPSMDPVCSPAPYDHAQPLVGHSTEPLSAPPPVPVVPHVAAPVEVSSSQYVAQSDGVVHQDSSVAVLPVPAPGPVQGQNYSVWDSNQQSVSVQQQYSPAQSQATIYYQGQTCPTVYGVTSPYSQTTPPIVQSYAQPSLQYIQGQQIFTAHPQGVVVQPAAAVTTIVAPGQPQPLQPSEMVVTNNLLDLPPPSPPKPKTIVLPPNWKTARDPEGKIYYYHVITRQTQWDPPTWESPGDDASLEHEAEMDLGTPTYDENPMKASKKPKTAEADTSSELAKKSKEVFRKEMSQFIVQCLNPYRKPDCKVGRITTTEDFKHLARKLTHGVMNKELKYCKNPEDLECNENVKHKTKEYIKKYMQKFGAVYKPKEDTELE
# UniProt P50452: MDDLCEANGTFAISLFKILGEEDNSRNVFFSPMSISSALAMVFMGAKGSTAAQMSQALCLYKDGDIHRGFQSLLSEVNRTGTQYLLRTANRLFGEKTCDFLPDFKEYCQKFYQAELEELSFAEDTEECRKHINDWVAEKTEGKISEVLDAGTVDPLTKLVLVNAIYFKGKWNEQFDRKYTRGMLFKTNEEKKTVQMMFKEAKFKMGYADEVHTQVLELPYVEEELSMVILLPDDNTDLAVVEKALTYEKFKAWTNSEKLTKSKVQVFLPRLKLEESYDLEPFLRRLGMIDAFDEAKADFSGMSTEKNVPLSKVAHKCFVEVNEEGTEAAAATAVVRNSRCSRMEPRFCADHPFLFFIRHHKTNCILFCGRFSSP
# UniProt Q96ST3: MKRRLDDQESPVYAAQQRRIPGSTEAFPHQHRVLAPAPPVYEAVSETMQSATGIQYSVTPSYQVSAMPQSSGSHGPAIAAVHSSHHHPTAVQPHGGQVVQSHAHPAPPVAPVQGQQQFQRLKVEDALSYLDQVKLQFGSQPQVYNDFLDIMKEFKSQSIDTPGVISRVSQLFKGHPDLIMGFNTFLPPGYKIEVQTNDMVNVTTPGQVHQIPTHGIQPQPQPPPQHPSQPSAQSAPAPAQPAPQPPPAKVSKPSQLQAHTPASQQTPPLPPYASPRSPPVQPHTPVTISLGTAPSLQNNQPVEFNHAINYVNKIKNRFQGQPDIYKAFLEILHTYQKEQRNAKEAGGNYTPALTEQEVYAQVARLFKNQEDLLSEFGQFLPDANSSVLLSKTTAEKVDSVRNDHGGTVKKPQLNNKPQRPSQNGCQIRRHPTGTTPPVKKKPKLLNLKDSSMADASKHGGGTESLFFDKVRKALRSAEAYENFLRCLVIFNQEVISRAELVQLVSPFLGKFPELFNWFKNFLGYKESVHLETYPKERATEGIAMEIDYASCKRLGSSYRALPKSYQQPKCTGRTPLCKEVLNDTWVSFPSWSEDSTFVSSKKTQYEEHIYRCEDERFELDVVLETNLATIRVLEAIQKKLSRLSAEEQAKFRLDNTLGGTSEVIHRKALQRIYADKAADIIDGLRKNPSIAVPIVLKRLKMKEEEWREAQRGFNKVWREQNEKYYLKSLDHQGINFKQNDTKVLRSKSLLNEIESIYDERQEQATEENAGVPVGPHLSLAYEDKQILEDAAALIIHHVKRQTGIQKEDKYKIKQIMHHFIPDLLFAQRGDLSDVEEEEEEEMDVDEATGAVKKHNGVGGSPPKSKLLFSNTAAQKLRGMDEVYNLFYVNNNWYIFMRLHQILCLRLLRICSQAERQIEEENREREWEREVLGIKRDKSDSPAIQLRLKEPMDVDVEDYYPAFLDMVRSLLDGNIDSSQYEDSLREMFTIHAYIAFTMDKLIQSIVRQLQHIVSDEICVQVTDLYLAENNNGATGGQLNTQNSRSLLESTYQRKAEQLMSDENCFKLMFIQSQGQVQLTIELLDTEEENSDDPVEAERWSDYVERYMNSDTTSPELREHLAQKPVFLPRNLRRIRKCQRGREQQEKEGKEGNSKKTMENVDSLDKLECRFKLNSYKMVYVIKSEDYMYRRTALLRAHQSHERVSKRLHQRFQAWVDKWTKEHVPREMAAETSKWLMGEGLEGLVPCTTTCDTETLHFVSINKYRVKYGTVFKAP
# UniProt Q9UHD8: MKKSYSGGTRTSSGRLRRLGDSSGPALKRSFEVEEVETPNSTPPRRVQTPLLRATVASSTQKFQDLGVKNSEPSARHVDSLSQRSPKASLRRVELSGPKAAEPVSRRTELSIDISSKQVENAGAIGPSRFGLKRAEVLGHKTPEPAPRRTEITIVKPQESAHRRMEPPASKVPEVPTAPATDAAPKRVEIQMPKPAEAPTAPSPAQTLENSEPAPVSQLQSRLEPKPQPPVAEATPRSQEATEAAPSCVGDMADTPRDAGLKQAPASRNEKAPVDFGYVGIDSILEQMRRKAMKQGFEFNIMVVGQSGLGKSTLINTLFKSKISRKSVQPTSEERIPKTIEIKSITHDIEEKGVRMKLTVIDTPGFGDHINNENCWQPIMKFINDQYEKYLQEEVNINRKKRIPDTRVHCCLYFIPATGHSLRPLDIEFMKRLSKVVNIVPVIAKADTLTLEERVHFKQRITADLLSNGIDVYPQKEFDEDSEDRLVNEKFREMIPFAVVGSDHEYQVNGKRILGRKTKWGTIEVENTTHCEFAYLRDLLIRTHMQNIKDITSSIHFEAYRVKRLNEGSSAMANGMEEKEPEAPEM
# UniProt Q16181: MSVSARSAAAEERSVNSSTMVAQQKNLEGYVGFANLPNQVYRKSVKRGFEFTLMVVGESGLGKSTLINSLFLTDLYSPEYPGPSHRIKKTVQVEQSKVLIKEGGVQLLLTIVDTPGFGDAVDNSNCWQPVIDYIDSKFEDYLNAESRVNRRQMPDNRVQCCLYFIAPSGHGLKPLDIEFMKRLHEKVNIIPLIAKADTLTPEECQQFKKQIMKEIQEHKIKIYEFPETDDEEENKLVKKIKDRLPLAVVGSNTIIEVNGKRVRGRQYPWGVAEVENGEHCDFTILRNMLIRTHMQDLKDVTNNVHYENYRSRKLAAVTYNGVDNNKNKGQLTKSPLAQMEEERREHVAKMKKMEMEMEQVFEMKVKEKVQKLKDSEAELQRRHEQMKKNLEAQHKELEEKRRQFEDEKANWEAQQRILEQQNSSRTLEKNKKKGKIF
# UniProt Q15393: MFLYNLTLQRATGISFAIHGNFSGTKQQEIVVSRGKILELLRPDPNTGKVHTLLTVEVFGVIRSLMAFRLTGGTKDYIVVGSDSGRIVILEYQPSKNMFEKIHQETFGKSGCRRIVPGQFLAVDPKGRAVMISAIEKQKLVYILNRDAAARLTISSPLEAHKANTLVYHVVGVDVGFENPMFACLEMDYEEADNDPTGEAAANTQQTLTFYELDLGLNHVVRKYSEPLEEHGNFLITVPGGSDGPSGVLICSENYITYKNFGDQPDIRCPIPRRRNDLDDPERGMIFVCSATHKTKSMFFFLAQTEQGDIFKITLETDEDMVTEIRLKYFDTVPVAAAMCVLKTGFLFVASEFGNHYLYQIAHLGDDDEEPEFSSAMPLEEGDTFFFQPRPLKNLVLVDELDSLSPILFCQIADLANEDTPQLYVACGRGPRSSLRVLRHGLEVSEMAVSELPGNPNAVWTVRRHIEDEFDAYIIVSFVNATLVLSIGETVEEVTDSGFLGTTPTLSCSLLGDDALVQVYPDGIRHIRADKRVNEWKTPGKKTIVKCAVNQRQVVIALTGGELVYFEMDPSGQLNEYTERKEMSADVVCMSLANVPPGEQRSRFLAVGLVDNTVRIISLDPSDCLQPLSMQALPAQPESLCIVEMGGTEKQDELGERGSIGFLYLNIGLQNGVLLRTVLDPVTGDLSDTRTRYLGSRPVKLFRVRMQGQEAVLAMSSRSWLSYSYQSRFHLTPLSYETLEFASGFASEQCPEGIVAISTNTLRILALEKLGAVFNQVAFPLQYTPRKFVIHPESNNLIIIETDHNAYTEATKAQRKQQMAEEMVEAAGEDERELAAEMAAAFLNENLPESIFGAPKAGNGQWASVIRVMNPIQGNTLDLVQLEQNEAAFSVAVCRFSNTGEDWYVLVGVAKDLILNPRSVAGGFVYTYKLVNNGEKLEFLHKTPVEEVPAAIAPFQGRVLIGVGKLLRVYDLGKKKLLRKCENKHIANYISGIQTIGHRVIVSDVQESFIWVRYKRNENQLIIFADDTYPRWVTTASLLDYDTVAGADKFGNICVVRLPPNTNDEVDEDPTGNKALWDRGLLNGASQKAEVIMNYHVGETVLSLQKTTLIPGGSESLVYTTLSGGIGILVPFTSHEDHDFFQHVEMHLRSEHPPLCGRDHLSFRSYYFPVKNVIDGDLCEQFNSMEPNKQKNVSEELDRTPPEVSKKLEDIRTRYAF
# The other results are listed elsewhere or left out.
# Compound: Cc1cc(ccc1-c1ccccc1)C(=O)N1CCCN(CC1)C(=O)CCl [compound 10]
# Assay: probe-labelled cysteine peptide fold change vs DMSO (competition) (log2 fold change); higher = less target engagement (more negative = stronger competition)
# Details: THP-1, incubation time: 4 h
# 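Also: competitive profiling in live THP-1 cells: cysteine peptides tagged with an iodoacetamide desthiobiotin (IA-DTB) probe, intensity after compound treatment relative to DMSO-treated cells.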
Target,probe-labelled cysteine peptide fold change (10 µM),probe-labelled cysteine peptide fold change (50 µM)
SETD2_Q9BYW2_1241_TELSFSSSCEIPHVDGLHSSEELR (UniProt Q9BYW2),-0.0483,-0.244
SF3A1_Q15459_244_EAENPREVLDQVCYR (UniProt Q15459),-0.23,-0.308
SERPINB8_P50452_128_FYQAELEELSFAEDTEECRK (UniProt P50452),-0.0682,0.182
SH3KBP1_Q96B97_103_CQVAFSYLPQNDDELELK (UniProt Q96B97),0.135,-0.0565
SLC27A1_Q6PCB7_204_FCSGDLGPEGILPDTHLLDPLLK (UniProt Q6PCB7),0.285,0.102
SLC25A28_Q96A46_49_GAGGGEAGACRPPVR (UniProt Q96A46),-0.368,-0.406
SIN3A_Q96ST3_425_PQRPSQNGCQIR (UniProt Q96ST3),-0.158,-0.258
SIGLEC5_O15389_314_SAEEGGFTCR (UniProt O15389),-0.0918,-0.198
SLC25A36_Q96CQ1_239_TCATTIAYPHEVVR (UniProt Q96CQ1),-0.122,0.332
SEPT9_Q9UHD8_531_WGTIEVENTTHCEFAYLR (UniProt Q9UHD8),-0.0632,0.107
SLC25A3_Q00325_136_GWAPTFLGYSMQGLCK (UniProt Q00325),0.0031,0.224
SLC25A5_P05141_257_KGTDIMYTGTLDCWR (UniProt P05141),-0.111,-0.203
SGK3_Q96BR1_13_ESCPSVSIPSSDEHREK (UniProt Q96BR1),-0.152,-0.389
SKIV2L_Q15477_877_VFTTLVLCDK (UniProt Q15477),-0.0936,0.412
SETX_Q7Z333_2265_MHPDICLFPSNYVYNR (UniProt Q7Z333),0.237,-0.0627
SETDB1_Q15047_1207_QFYDGEESCYIIDAK (UniProt Q15047),0.0273,0.05
SIK3_Q9Y2K2_290_IPFFMSTECEHLIR (UniProt Q9Y2K2),-0.0505,-0.135
SHTN1_A0MZ66_550_KLEGCTSSK (UniProt A0MZ66),-0.274,-0.399
SEPT6_Q14141_301_CKLEEMGFK (UniProt Q14141),-0.223,-0.339
SEPT7_Q16181_280_QYPWGVAEVENGEHCDFTILR (UniProt Q16181),-0.0371,-0.00862
SEPT9_Q9UHD8_248_SQEATEAAPSCVGDMADTPR (UniProt Q9UHD8),-0.0293,-0.251

# 2 records drawn at random from the list so far:
Target,probe-labelled cysteine peptide fold change (10 µM),probe-labelled cysteine peptide fold change (50 µM)
SETDB1_Q15047_1207_QFYDGEESCYIIDAK (UniProt Q15047),0.0273,0.05
SETD2_Q9BYW2_1241_TELSFSSSCEIPHVDGLHSSEELR (UniProt Q9BYW2),-0.0483,-0.244

# Later entries.

Target,probe-labelled cysteine peptide fold change (10 µM),probe-labelled cysteine peptide fold change (50 µM)
SERPINB8_P50452_59_GSTAAQMSQALCLYK (UniProt P50452),0.114,0.448
SIN3A_Q96ST3_1063_AEQLMSDENCFK (UniProt Q96ST3),0.133,0.317
SF3A3_Q12874_103_HPNEICVPMSVEFEELLK (UniProt Q12874),-0.071,0.324
SKA3_Q8IX90_20_SLASTLDCETAR (UniProt Q8IX90),0.0147,0.215
SLC17A5_Q9NRA2_83_ACPEHSAPIK (UniProt Q9NRA2),-0.0974,0.078
SIN3A_Q96ST3_425_KPQLNNKPQRPSQNGCQIR (UniProt Q96ST3),-0.322,-0.761
SERBP1_Q8NC51_11_PGHLQEGFGCVVTNRFDQLFDDESDPFEVLK (UniProt Q8NC51),0.0291,-0.513
SF1_Q15637_279_SITNTTVCTK (UniProt Q15637),0.19,0.118
SERPINB10_P48595_68_CDPESEK (UniProt P48595),-0.181,-0.213
SHPRH_Q149N8_1025_QLVCALNGLAGIHIIK (UniProt Q149N8),-0.00218,-0.125
SKP2_Q13309_327_NDCFQEFFQLNYLQHLSLSR (UniProt Q13309),-0.0622,-0.141
SHCBP1_Q8NEM2_254_LHYDILEDRVPSGLIVDYHNLLSQCEESYR (UniProt Q8NEM2),0.0596,0.17
SHCBP1_Q8NEM2_591_IQTSGEPDVAERVDLEELIECATGK (UniProt Q8NEM2),-0.559,-0.255
SHPK_Q9UHJ6_132_CSSEFLASLPQPK (UniProt Q9UHJ6),-0.0796,0.128
SH3PXD2B_A1X283_115_ALIQLPPYISQCDEVLQFFETRPEDLNPPKEEHIGK (UniProt A1X283),-0.227,-0.325
SFMBT1_Q9UHJ3_659_IGRPPGGHSNLACALK (UniProt Q9UHJ3),-0.154,-0.433
SF3B3_Q15393_589_EMSADVVCMSLANVPPGEQR (UniProt Q15393),-0.0758,0.0219
SF3B3_Q15393_340_YFDTVPVAAAMCVLK (UniProt Q15393),-0.159,0.0584
SF3B1_O75533_965_TCQEEK (UniProt O75533),0.131,0.267
SLC19A1_P41440_220_CETSASELER (UniProt P41440),-0.296,-0.929
SIRT6_Q8N6T7_141_LAELHGNMFVEECAK (UniProt Q8N6T7),-0.0707,-0.0804
